The values that follow are results of earlier work, collected in patent US20140056981A1, “METHOD FOR PRODUCING DRUG-LOADED POLYMERIC NANOPARTICLES BY POLYMERIZATION IN PRESENCE OF DRUGS” (CENTRO DE INVESTIGACION EN QUIMICA APLICADA, priority 2012, published 2014).

Structures are written as SMILES. ≈ marks a conversion by molar mass, not a printed value.

The conditions of this series: at 25° C.

In the case of `CC(C)Cc1ccc(C(C)C(=O)O)cc1` (stereo not shown) [Ibuprofen], the water solubility is 370 µg/mL (≈ 1790 µM).
